PubChem BioAssay AID743121, NCATS – 2013
This is a random part of about 26,000 reagents. In the full data, 167 (0.63%) are marked active. 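Calls are per gene from RSA p-values that are not deposited; an individual active-marked siRNA can sensitise only weakly.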 Further read-outs or replicates are left out here.

Test: 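Genes whose silencing strengthens cell killing by camptothecin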 (primary screen)
Cell system: MDA-MB-231 cells, a human breast cancer line
Reagents: single siRNA against human genes, 20 nM siRNA (0.8 pmol per well)
Duration: 120 h (drug added 48 h after transfection, read 72 h later)
Challenge: camptothecin 20 nM (about EC30) for 72 h; vehicle 0.1% DMSO in parallel plates
Measured: 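Cell viability by ATP luminescence (CellTiter-Glo) as % of non-targeting siRNA wells, and the log2 ratio of viability without drug over viability with camptothecin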
Scale: log2 vehicle/camptothecin viability: higher = stronger sensitisation to camptothecin; viability with camptothecin: higher = more viable cells
Units: viability with camptothecin in % of control
Active means: 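Active genes have an RSA gene-level p-value below 0.001, computed from the ratios of their separate siRNAs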

ATP5F1B [SID164354653] → log2 vehicle/camptothecin viability = -0.234; viability with camptothecin = 55.1; outcome = inactive
ATP5F1B [SID164354655] → log2 vehicle/camptothecin viability = -0.147; viability with camptothecin = 64.9; outcome = inactive
ATP5F1B [SID164354659] → log2 vehicle/camptothecin viability = -0.152; viability with camptothecin = 104; outcome = inactive
ATP5F1B [SID164354661] → log2 vehicle/camptothecin viability = -0.258; viability with camptothecin = 97.5; outcome = inactive
RTEL1 [SID164475309] → log2 vehicle/camptothecin viability = -0.259; viability with camptothecin = 89.9; outcome = inactive
RTEL1 [SID164475313] → log2 vehicle/camptothecin viability = 0.13; viability with camptothecin = 68.5; outcome = inactive
RTEL1 [SID164475314] → log2 vehicle/camptothecin viability = -0.146; viability with camptothecin = 84.7; outcome = inactive
RTEL1 [SID164475316] → log2 vehicle/camptothecin viability = -0.466; viability with camptothecin = 24.3; outcome = inactive
MMP25 [SID164502415] → log2 vehicle/camptothecin viability = -0.495; viability with camptothecin = 64.1; outcome = inactive
MMP25 [SID164502416] → log2 vehicle/camptothecin viability = -0.635; viability with camptothecin = 92; outcome = inactive
MMP25 [SID164502418] → log2 vehicle/camptothecin viability = 0.176; viability with camptothecin = 14.7; outcome = inactive
MMP25 [SID164502420] → log2 vehicle/camptothecin viability = -0.134; viability with camptothecin = 92; outcome = inactive
CBR1 [SID164356812] → log2 vehicle/camptothecin viability = 0.183; viability with camptothecin = 87.9; outcome = inactive
CBR1 [SID164356814] → log2 vehicle/camptothecin viability = -0.0788; viability with camptothecin = 111; outcome = inactive
CBR1 [SID164356815] → log2 vehicle/camptothecin viability = 0.0513; viability with camptothecin = 91.4; outcome = inactive
CBR1 [SID164356816] → log2 vehicle/camptothecin viability = -0.214; viability with camptothecin = 105; outcome = inactive
OLFM1 [SID164411004] → log2 vehicle/camptothecin viability = 0.466; viability with camptothecin = 50.3; outcome = inactive
OLFM1 [SID164411007] → log2 vehicle/camptothecin viability = 0.184; viability with camptothecin = 30.2; outcome = inactive
OLFM1 [SID164411010] → log2 vehicle/camptothecin viability = -0.134; viability with camptothecin = 95.6; outcome = inactive
OLFM1 [SID164411013] → log2 vehicle/camptothecin viability = -0.322; viability with camptothecin = 109; outcome = inactive
CDC42BPA [SID164397836] → log2 vehicle/camptothecin viability = -0.0964; viability with camptothecin = 100; outcome = inactive
CDC42BPA [SID164397838] → log2 vehicle/camptothecin viability = -0.111; viability with camptothecin = 79.8; outcome = inactive
CDC42BPA [SID164397840] → log2 vehicle/camptothecin viability = -0.225; viability with camptothecin = 74.6; outcome = inactive
CDC42BPA [SID164397841] → log2 vehicle/camptothecin viability = -0.196; viability with camptothecin = 117; outcome = inactive

4 entries already listed, ordered by “viability with camptothecin”, highest first:
MMP25 [SID164502416] → log2 vehicle/camptothecin viability = -0.635; viability with camptothecin = 92; outcome = inactive
MMP25 [SID164502420] → log2 vehicle/camptothecin viability = -0.134; viability with camptothecin = 92; outcome = inactive
MMP25 [SID164502415] → log2 vehicle/camptothecin viability = -0.495; viability with camptothecin = 64.1; outcome = inactive
MMP25 [SID164502418] → log2 vehicle/camptothecin viability = 0.176; viability with camptothecin = 14.7; outcome = inactive

More entries follow.
FPR2 [SID164365345] → log2 vehicle/camptothecin viability = -0.72; viability with camptothecin = 93.7; outcome = inactive
FPR2 [SID164365346] → log2 vehicle/camptothecin viability = -0.202; viability with camptothecin = 73.5; outcome = inactive
FPR2 [SID164365349] → log2 vehicle/camptothecin viability = -0.168; viability with camptothecin = 33.7; outcome = inactive
FPR2 [SID164365350] → log2 vehicle/camptothecin viability = -0.498; viability with camptothecin = 52.2; outcome = inactive
FBXO2 [SID164459373] → log2 vehicle/camptothecin viability = -0.374; viability with camptothecin = 69.6; outcome = inactive
FBXO2 [SID164459375] → log2 vehicle/camptothecin viability = -0.259; viability with camptothecin = 47.7; outcome = inactive
FBXO2 [SID164459376] → log2 vehicle/camptothecin viability = -0.439; viability with camptothecin = 93.9; outcome = inactive
FBXO2 [SID164459377] → log2 vehicle/camptothecin viability = -0.0691; viability with camptothecin = 101; outcome = inactive
IDUA [SID164370710] → log2 vehicle/camptothecin viability = 0.36; viability with camptothecin = 65; outcome = inactive
IDUA [SID164370711] → log2 vehicle/camptothecin viability = -0.159; viability with camptothecin = 103; outcome = inactive
IDUA [SID164370712] → log2 vehicle/camptothecin viability = -0.178; viability with camptothecin = 106; outcome = inactive
IDUA [SID164370714] → log2 vehicle/camptothecin viability = 0.0746; viability with camptothecin = 76; outcome = inactive
